Measured values from PubChem BioAssay AID2685 (National Center for Advancing Translational Sciences (NCATS), 2010).
The list shows a part of the results. These are further read-outs of the screen, such as a control signal, another cell line or another target. No call is given for them. Most of these compounds were active or inconclusive in the main read-out, so they are no random draw. The note in brackets gives the kind of curve behind each potency; many fits are weak.

Test: qHTS Assay for Lipid Storage Modulators in Drosophila S3 Cells;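 for cell number change: cells counted by Cell Tracker Red CMTPX staining in the red channel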
Details: BODIPY lipid droplet fluorescence, 18-24 h; for cell number change: measured here: cell count max response, cells fed with added oleic acid
In short: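 Drosophila S3 cells got compounds at several concentrations plus oleic acid (400 uM solution). Laser-scanning cytometry with 488 nm excitation read lipid droplets at 500-530 nm and cells at 575-640 nm. Percent activity was relative to 20 uM Triacsin C.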

[1] = measured here: lipid fluorescence (Fed channel) AC50, cells fed with added oleic acid
[2] = measured here: cell number channel AC50, cells fed with added oleic acid

## Cc1ccc2cc(CCNC(=O)C(=O)c3c(C)[nH]c4ccccc34)c(=O)[nH]c2c1
  cell number change: 12.5%
[1]
  AC50: 5.8 µM [rising, single point]

## COc1cccc(/C=C/C(=O)OCC(=O)NCc2ccco2)c1OC
  cell number change: 10.5%

## Cc1ccc(-n2nc3c(=O)n(CCCC(=O)NCCc4ccccc4)nc(C)c3c2C)cc1
  cell number change: 85.5%
[2]
  AC50: 14.6 µM [rising, partial curve]
[1]
  AC50: 5.17 µM [rising, single point]

## CC(C)CC(=O)Nc1ccc(-c2cn3cccnc3n2)cc1
  cell number change: 9.72%
[1]
  AC50: 18.4 µM [rising, partial curve]

## Cc1cccc(CCNC(=O)CCS(=O)(=O)c2cc3c(cc2Cl)NC(=O)CO3)c1
  cell number change: -6.65%

## CC(C)(O)c1cc2ccc(C#Cc3ccsc3)cc2c(=O)o1
  cell number change: 5.56%
[1]
  AC50: 1.16 µM [rising, single point]

## CC(=O)N1CCSc2ccc(S(=O)(=O)NCCc3ccc(Cl)cc3)cc21
[2]
  AC50: 1.3 µM [rising, full curve, poor fit]

## CC(C)c1nc(SCC(=O)Nc2ccc3c(c2)OCO3)n[nH]1
[1]
  AC50: 3.66 µM [rising, single point]

## CCN/N=C(\Cc1nc2ccccc2[nH]1)c1ccccc1
[2]
  AC50: 4.11 µM [rising, single point]
[1]
  AC50: 5.8 µM [rising, single point]

## CC1CCCN(c2ccc(C(=O)NCc3ccco3)cc2[N+](=O)[O-])C1 (stereo unspecified)
  cell number change: 15.7%

## O=C(CSc1nnc(CNC(=O)c2ccc(F)cc2)o1)NCc1ccccc1
  cell number change: -26.7%
[1]
  AC50: 0.0082 µM [falling, full curve, poor fit]

## COc1ccc(CCNc2oc(COc3ccccc3Cl)nc2C#N)cc1OC
  cell number change: -31.6%
[2]
  AC50: 14.6 µM [falling, partial curve]
[1]
  AC50: 16.4 µM [falling, single point]

## [O-]/[N+](=C\c1ccco1)c1ccc(Cl)cc1
  cell number change: 3.28%

## Cc1nn(CC(=O)NC(=O)NC2CCCCC2C)c(=O)c(C#N)c1C (stereo unspecified)
  cell number change: 2.15%
[1]
  AC50: 18.4 µM [rising, single point]

## CC(C)NC(=O)c1ccc(-c2ccc(Cl)c(C(F)(F)F)c2)o1
  cell number change: 109%
[2]
  AC50: 20.6 µM [rising, partial curve]
[1]
  AC50: 4.11 µM [rising, single point]

## Cc1cc(Cl)c(S(=O)(=O)N2CC(C)OC(C)C2)cc1OCC(N)=O (stereo unspecified)
  cell number change: 33%
[2]
  AC50: 0.103 µM [rising, full curve, poor fit]
[1]
  AC50: 0.231 µM [rising, full curve, poor fit]

## CCOC(=O)[C@H]1[C@H]2COc3ccc(Cl)cc3[C@@H]2N2C(=O)c3cc(F)ccc3NC(=O)[C@@]12C
[2]
  AC50: 6.51 µM [falling, single point]

## Cc1cc(C(=O)N/N=C/c2ccc(-c3cccc(Br)c3)o2)n[nH]1
  cell number change: -32.8%
[2]
  AC50: 8.2 µM [falling, partial curve, poor fit]

## CCc1nc(N(CC)CC)c2oc3ccccc3c2n1
  cell number change: -44.8%
[2]
  AC50: 29.1 µM [falling, single point]
[1]
  AC50: 32.6 µM [falling, single point]

## O=C(c1ccc(Cn2cc([N+](=O)[O-])cn2)o1)N1CCCCCC1
  cell number change: -49.8%
[2]
  AC50: 35.5 µM [falling, single point]

## COC(=O)[C@@]1(Cc2ccc(F)cc2)[C@H]2c3cc(C(=O)N(C)C)n(CCc4ccccn4)c3C[C@H]2CN1C(=O)c1ccccc1
  cell number change: -4.34%
[1]
  AC50: 6.51 µM [rising, single point]

## Cc1cccc(C)c1NC(=O)C(c1ccc([N+](=O)[O-])cc1)N1CCCCC1 (stereo unspecified)
  cell number change: 14.5%
[1]
  AC50: 4.11 µM [rising, single point]

## Cc1ccccc1NC(=S)NC(=O)c1cc(-c2ccccc2)nc2ccccc12
  cell number change: 30.8%
[2]
  AC50: 16.4 µM [rising, single point]
[1]
  AC50: 29.1 µM [rising, single point]

## CCC(C)(C)NC(=O)C(c1ccc(OC)cc1)N(CC1CCCO1)C(=O)CCC(=O)Nc1cc(C)on1 (stereo unspecified)
  cell number change: -25.4%
[1]
  AC50: 11.6 µM [falling, partial curve]

## C/C(=C\c1cc(C(=O)O)c(C)o1)CO
  cell number change: -24.8%
[2]
  AC50: 3.66 µM [falling, full curve, poor fit]
[1]
  AC50: 3.26 µM [falling, partial curve]

## CCOC(=O)CN1C(=O)C2(OCCCO2)c2ccccc21
[1]
  AC50: 0.231 µM [falling, full curve]

## Cc1ncsc1C(=O)Nc1nc2c(s1)CCCC2
[2]
  AC50: 1.84 µM [rising, partial curve]
[1]
  AC50: 4.11 µM [rising, partial curve]

## COc1cc(NC(=O)Cn2nc(C(F)(F)F)c(Br)c2C)cc([N+](=O)[O-])c1
  cell number change: -30.3%
[2]
  AC50: 11.6 µM [falling, partial curve]
[1]
  AC50: 14.6 µM [falling, partial curve, poor fit]

## CCOC(=O)C(NC(=O)Nc1ccc(F)cc1F)(Oc1ccc(F)cc1)C(F)(F)F (stereo unspecified)
  cell number change: -37.6%
[2]
  AC50: 1.16 µM [falling, full curve, poor fit]

## CC(=O)NC(CC(C)C)C(=O)NC(=O)NCc1ccccc1 (stereo unspecified)
  cell number change: 13.8%

## CCOC(=O)Cn1c(=O)oc2cc(S(=O)(=O)Nc3ccc(F)cc3)ccc21
  cell number change: -23.1%

## CC(C)(C)c1ccc(S(=O)(=O)N2CCN(CC(=O)NC(=O)NC3CCCCC3)CC2)cc1
  cell number change: -35.5%
[2]
  AC50: 13 µM [falling, partial curve]
[1]
  AC50: 32.6 µM [falling, partial curve, poor fit]

## COc1ccc(NC(=S)c2ccc3ccccc3n2)cc1
  cell number change: -12.5%
[1]
  AC50: 18.4 µM [falling, partial curve]

## Cc1ccc(-c2nn(-c3ccccc3)cc2C=O)o1
  cell number change: -7.69%
[2]
  AC50: 0.092 µM [rising, full curve, poor fit]

## CCn1c(SCC(=O)Nc2ccc3c(c2)OCO3)nnc1C(C)C
  cell number change: -20.6%
[1]
  AC50: 29.1 µM [rising, single point]

## CCOc1ccc(-c2nnn(CC(=O)Nc3ccccc3OC)n2)cc1OCC
  cell number change: -20%
[1]
  AC50: 0.731 µM [rising, single point]
